Measurements published in paper PMC11984871, “Perillaldehyde Improves Parkinson‐Like Deficits by Targeting G3BP Mediated Stress Granule Assembly in Preclinical Models” (Advanced Science, 2025).
No constants are given. Whether binding was seen depends on the method and setting. In cells and extracts the contact can be indirect. Some entries that bind do so weakly or less than the wild type. Values belong to the substance of their own block, whether it stands above or below them.

Protein sequences, listed by entry. Tags and fused reporters are not part of them.
UniProt Q9UBN7: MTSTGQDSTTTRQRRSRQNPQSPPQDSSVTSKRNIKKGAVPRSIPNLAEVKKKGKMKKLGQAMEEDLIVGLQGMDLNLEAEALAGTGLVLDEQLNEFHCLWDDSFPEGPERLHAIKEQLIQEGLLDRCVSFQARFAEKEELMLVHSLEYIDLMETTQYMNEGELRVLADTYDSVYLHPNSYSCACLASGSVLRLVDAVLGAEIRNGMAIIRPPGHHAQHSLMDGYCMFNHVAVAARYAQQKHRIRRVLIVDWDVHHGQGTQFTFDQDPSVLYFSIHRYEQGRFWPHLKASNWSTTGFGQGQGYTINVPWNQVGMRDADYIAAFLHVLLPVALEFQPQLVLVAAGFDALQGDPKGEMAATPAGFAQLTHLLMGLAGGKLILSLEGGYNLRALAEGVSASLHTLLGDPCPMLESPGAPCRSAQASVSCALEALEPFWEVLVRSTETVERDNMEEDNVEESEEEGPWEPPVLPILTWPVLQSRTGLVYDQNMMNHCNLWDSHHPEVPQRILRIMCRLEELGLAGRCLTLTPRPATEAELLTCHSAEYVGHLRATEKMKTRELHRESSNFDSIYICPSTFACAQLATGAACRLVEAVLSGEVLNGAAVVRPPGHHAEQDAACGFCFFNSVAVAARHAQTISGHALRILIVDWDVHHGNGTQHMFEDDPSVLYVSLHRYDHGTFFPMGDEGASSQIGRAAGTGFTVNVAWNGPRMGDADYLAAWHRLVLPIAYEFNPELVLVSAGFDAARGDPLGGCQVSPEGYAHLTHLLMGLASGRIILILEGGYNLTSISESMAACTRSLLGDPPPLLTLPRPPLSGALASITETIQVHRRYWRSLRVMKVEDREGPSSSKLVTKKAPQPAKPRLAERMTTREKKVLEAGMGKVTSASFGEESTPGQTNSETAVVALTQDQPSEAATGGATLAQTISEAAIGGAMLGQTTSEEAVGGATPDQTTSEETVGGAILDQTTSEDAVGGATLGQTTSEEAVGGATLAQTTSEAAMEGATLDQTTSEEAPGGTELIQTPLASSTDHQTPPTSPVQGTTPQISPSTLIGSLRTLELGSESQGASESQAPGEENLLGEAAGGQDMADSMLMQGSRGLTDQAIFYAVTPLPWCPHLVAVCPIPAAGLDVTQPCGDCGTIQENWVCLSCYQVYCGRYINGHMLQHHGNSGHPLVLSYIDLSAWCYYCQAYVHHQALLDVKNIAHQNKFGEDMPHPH
UniProt Q13283: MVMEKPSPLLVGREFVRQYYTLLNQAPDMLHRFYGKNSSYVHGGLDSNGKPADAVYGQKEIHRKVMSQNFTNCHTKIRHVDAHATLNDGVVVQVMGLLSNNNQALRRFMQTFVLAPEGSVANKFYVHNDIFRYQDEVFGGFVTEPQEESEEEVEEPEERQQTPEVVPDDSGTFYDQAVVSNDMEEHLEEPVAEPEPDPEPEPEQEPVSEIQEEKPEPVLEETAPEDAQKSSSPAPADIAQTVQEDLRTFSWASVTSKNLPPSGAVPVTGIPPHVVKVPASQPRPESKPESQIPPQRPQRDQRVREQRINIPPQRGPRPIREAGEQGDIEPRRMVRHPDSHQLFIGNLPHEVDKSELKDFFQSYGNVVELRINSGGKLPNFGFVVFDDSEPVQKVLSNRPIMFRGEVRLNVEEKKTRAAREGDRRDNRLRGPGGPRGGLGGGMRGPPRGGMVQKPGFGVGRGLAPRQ

Experiments:
[1] = target: Flag-HDAC6, expressed from pCS2-Flag-HDAC6 in SH-SY5Y cells (human (cloned from 293T cDNA)) (UniProt Q9UBN7); assay: co-IP; SH-SY5Y cells transfected with mock vector or pCS2-Flag-HDAC6; pre-treated with DMSO or 100 × 10^−6 M PAE for 1 h, then DMSO or 100 × 10^−6 M 6-OHDA for 24 h; immunoprecipitation with anti-Flag; blot with anti-G3BP1
[2] = target: G3BP1, endogenous in SH-SY5Y cells (human (endogenous in SH-SY5Y)) (UniProt Q13283); assay: co-IP; endogenous proteins of SH-SY5Y cells, untreated or treated with 100 × 10^−6 M 6-OHDA for 24 h; immunoprecipitation with an anti-G3BP1 antibody; blot with anti-HDAC6
[3] = target: Flag-HDAC6 (histone deacetylase 6), expressed from pCS2-Flag-HDAC6 in HEK293T cells (human (cloned from 293T cDNA)) (UniProt Q9UBN7); assay: co-IP; HEK293T cells co-transfected; RIPA lysate; anti-Flag beads overnight at 4 °C; washed with PBS, 0.05% Tween-20; blot with anti-Myc; cells also treated with DMSO or 100 × 10^−6 M PAE for 1 h

binding [1]: binds
Substance: G3BP1, endogenous in SH-SY5Y cells (from UniProt Q13283 1-466)

binding [2]: binds
Substance: HDAC6, endogenous in SH-SY5Y cells (from UniProt Q9UBN7 1-1215) (enzyme)

binding [3]: binds
Substance: Myc-G3BP1 (Ras GTPase-activating protein-binding protein 1), expressed from pCS2-Myc-G3BP1 in HEK293T cells (from UniProt Q13283 1-466)
